Results are given in words; binding and its absence hold for the method and conditions named. Binding seen in cells or lysates may run through a third protein. Binding can be weak; no strength is given. Sequences can lack the tags named with a protein.
molecular target: T1, ARIH2-FLAG (UniProt Q9Z1K6); experiment: co-IP; HEK293T cells co-transfected for 30 h; lysates in RIPA buffer; immunoprecipitated with anti-FLAG beads, immunoblotted with anti-HA and anti-FLAG; for the ARIH2-FLAG panels cells were treated with MG132 (20 μM) for 6 h
T1 sequence: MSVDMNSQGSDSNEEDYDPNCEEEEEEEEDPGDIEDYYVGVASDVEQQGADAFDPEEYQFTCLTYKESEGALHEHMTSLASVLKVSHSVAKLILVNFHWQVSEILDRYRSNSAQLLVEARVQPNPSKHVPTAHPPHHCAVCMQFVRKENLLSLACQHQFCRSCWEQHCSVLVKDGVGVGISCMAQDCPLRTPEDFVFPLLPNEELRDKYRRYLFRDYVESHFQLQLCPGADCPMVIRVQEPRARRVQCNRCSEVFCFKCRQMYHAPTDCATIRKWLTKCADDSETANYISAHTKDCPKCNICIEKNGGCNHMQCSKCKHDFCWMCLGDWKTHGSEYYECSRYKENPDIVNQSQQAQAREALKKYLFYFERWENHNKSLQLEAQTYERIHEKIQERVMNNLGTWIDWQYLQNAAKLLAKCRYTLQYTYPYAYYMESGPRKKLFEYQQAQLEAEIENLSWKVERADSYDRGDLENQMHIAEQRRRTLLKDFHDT

binding, binds:
PPARγ∆AF-HA (from UniProt P37238), PPARγ∆DBD-HA (from UniProt P37238), PPARγ∆LBD-HA (from UniProt P37238)
